Drawing on paper PMC5081413, this text covers binding for one substance.

Sequences of proteins named here, by UniProt entry; tags and fusion partners are left off. A change or cut given only in a name is not applied to a line headed by its entry. Residues count along the entry.
UniProt P84077: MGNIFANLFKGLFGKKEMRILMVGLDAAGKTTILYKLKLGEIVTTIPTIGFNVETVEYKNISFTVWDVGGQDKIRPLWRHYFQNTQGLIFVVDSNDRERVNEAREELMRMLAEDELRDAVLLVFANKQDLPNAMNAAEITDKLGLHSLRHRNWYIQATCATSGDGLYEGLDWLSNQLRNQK
UniProt P62330: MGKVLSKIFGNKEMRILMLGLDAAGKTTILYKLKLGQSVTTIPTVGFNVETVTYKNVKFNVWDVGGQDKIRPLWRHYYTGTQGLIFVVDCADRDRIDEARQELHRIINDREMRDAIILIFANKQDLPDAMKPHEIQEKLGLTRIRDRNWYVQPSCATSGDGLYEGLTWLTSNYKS
UniProt Q7DB50, residues 31-381: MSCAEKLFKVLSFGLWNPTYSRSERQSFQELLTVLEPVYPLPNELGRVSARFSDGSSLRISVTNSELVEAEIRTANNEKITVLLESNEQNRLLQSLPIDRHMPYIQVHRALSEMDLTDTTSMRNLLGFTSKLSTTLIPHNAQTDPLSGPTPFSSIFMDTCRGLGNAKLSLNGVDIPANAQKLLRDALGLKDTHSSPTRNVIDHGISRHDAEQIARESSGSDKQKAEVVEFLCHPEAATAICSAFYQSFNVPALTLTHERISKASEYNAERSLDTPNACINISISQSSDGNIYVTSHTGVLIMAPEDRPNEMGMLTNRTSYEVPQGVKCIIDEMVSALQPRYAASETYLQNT

No constants are given. Whether binding was seen depends on the method and setting. Some binding calls cover weakened binding; strength is not graded here.

Assay [1] concerns the target constitutively active GTP-bound myristoylated Arf1-Q71L (UniProt P84077). Briefly: pull-down; both purified.
Assay [2] concerns the target recombinant myristoylated Arf6 activated with GTPγS (UniProt P62330). Briefly: pull-down; both purified.

For the substance “EspG wild-type, recombinant (effector domain residues 48-398) (from UniProt Q7DB50 31-381) (domain or fragment)”, the binding entry in assay [1] and in assay [2] was “binds” each time.
